Earlier results, collected in US9545418B2, “ON01910.Na enhances chemotherapeutic agent activity in drug-resistant tumors” (THE JOHNS HOPKINS UNIVERSITY, priority 2008, dated 2017).
Read-outs that look alike come from different tables or passages of the source. At least one structure is not confirmed: it was looked up by name or label, or the drawing left a doubt.

Legend:
[1] = Dogs, IV bolus, cited from earlier work
[2] = Rats, cited from earlier work; for MTD: IV bolus

Q: Which results are given for `COc1cc(OC)c(/C=C/S(=O)(=O)Cc2ccc(OC)c(NCC(=O)O)c2)c(OC)c1` [ON-01910-Na]?
A: MTD ([1]; 2x/wk, 4 wks): >1000 mg/m^2; MTD ([1]; 7 day repeat): >1000 mg/m^2; MTD ([1]; 28 day repeat): >1000 mg/m^2; MTD ([1]; single dose): >4000 mg/m^2; MTD ([2]; 2x/wk, 4 wk): 900 mg/m^2; MTD ([2]; 28 day repeat): 450 mg/m^2; deaths (animals died) ([2]; single dose, 1200 mg/m^2): no deaths; MTD ([2]; single dose): > 1200 mg/m^2
